# Results deposited as PubChem BioAssay AID1224830 (NIAID, 2016).
# Aim: 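Genes whose knock-down alters the TNF-alpha reporter response to LPS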 (primary screen)
# System: human THP-1 monocytic leukaemia cells, TNF dual-luciferase reporter clone, PMA-differentiated to macrophage-like cells
# Knock-down reagent: siRNA pool against human genes, 50 nM
# Time to read-out: LPS for 4 h, given about 3 days after siRNA transfection
# Conditions: bacterial LPS (TLR4 ligand), 10 ng/ml
# Measured: 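TNF firefly reporter luminescence divided by renilla, normalised to the plate median, then turned into a robust z-score for each replicate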
# Reading the numbers: TNF reporter robust z-score: higher = stronger TNF reporter response to LPS
# Call rule: 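a well is active when its z-score exceeds 2.8 or falls below -1.5; control wells carry no call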
# Here is one part, drawn at random, of about 18,000 reagents tested. In the full data, about 2,900 (16%) are marked active. 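Calls are made per well; low scores hint the gene aids the LPS response, high scores that it dampens it.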 A number with no mark means an inactive call. The numbers tell different reagents against one gene apart. Repeated entries: four replicate wells of each siRNA pool.
Gene,reagent no.,TNF reporter robust z-score
AKR1B10 (aldo-keto reductase family 1 member B10),1,0.25
AKR1B10 (aldo-keto reductase family 1 member B10),1,0.72
AKR1B10 (aldo-keto reductase family 1 member B10),1,-0.57
AKR1B10 (aldo-keto reductase family 1 member B10),1,0.61
MAN2B2 (mannosidase alpha class 2B member 2),1,0.2
MAN2B2 (mannosidase alpha class 2B member 2),1,0.7
MAN2B2 (mannosidase alpha class 2B member 2),1,0.98
MAN2B2 (mannosidase alpha class 2B member 2),1,0.32
ZGPAT (zinc finger CCCH-type and G-patch domain containing),1,-0.28
ZGPAT (zinc finger CCCH-type and G-patch domain containing),1,0.25
ZGPAT (zinc finger CCCH-type and G-patch domain containing),1,-0.19
ZGPAT (zinc finger CCCH-type and G-patch domain containing),1,-0.59
"SEC13 (SEC13 homolog, nuclear pore and COPII component)",1,0.35
"SEC13 (SEC13 homolog, nuclear pore and COPII component)",1,-0.9
"SEC13 (SEC13 homolog, nuclear pore and COPII component)",1,-0.83
"SEC13 (SEC13 homolog, nuclear pore and COPII component)",1,0.27
COL4A1 (collagen type IV alpha 1 chain),1,1.17
COL4A1 (collagen type IV alpha 1 chain),1,1.1
COL4A1 (collagen type IV alpha 1 chain),1,0.58
COL4A1 (collagen type IV alpha 1 chain),1,-0.39

6 successive entries from above:
Gene,reagent no.,TNF reporter robust z-score
AKR1B10 (aldo-keto reductase family 1 member B10),1,0.72
AKR1B10 (aldo-keto reductase family 1 member B10),1,-0.57
AKR1B10 (aldo-keto reductase family 1 member B10),1,0.61
MAN2B2 (mannosidase alpha class 2B member 2),1,0.2
MAN2B2 (mannosidase alpha class 2B member 2),1,0.7
MAN2B2 (mannosidase alpha class 2B member 2),1,0.98

The listing continues:
Gene,reagent no.,TNF reporter robust z-score
"PNN (pinin, desmosome associated protein)",1,-0.16
"PNN (pinin, desmosome associated protein)",1,0.83
"PNN (pinin, desmosome associated protein)",1,0.7
"PNN (pinin, desmosome associated protein)",1,0.41
NHSL2 (NHS like 2),1,0.34
NHSL2 (NHS like 2),1,1.11
NHSL2 (NHS like 2),1,0.1
NHSL2 (NHS like 2),1,0.67
NHSL2 (NHS like 2),2,-1.26
NHSL2 (NHS like 2),2,-1.28
NHSL2 (NHS like 2),2,1.24
NHSL2 (NHS like 2),2,-0.33
FAM241B (family with sequence similarity 241 member B),1,-1.2
FAM241B (family with sequence similarity 241 member B),1,1.94
FAM241B (family with sequence similarity 241 member B),1,-0.79
FAM241B (family with sequence similarity 241 member B),1,-0.5
CLK1 (CDC like kinase 1),1,-1.05
CLK1 (CDC like kinase 1),1,-1.51 (active)
CLK1 (CDC like kinase 1),1,-0.78
CLK1 (CDC like kinase 1),1,-0.92
NELFE (negative elongation factor complex member E),1,0.9
NELFE (negative elongation factor complex member E),1,0.91
NELFE (negative elongation factor complex member E),1,0.41
NELFE (negative elongation factor complex member E),1,-0.16
SLC13A2,1,-1.17
SLC13A2,1,-0.88
SLC13A2,1,-1.64 (active)
SLC13A2,1,-1.42
